Data source: PubChem BioAssay AID1224826 (NIAID, 2016)
In all, the deposit lists about 17,000 reagents; below is an unselected part. About 1,110 of all reagents (6.6%) count as active. 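Active means lowered or raised reporter signal; replicate intensities are raw and not normalised per plate.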 Further read-outs or replicates are left out here. Reagent sequences are not shown.

Purpose: 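Regulators of Tlr4 signalling leading to Tnf-alpha expression in macrophages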 (primary screen)
System: RAW264.7 G9 macrophages from mouse bearing reporters for p65 (GFP) and the Tnf promoter (mCherry)
Knock-down reagent: siRNA pool against mouse genes, 100 nM
Timing: 16 h of LPS stimulation, after 2 days of siRNA transfection
Challenge: bacterial lipopolysaccharide (Salmonella minnesota R595), 10 ng/ml
Read-out: 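Nuclear mCherry signal of the Tnf promoter reporter measured by imaging after background removal, scaled to each plate median and turned into robust z-scores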
Reading the numbers: Tnf reporter robust z-score: higher = stronger Tnf promoter reporter signal after LPS
Call rule: 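a well counts as active at a score of -1.3 or below (Tlr4 knock-down control median) or above 3 (raised signal); controls and wells holding fewer than 50 cells are excluded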
Meaning of the calls: active = Tnf reporter clearly lowered or raised; inactive = no clear change in Tnf reporter

Tlr1 (GeneID 21897) gave Tnf reporter robust z-score 2.15; fewer than 50 cells in well enough cells in well; inactive. For Tab1 (GeneID 66513), the entry reads Tnf reporter robust z-score 0.25; fewer than 50 cells in well enough cells in well; inactive. Ifi203 (GeneID 15950) gave Tnf reporter robust z-score 0.88; fewer than 50 cells in well enough cells in well; inactive. Iqub (GeneID 214704) showed fewer than 50 cells in well fewer than 50 cells per well; well left out of calls; inactive. Or9m2 (GeneID 258639) showed Tnf reporter robust z-score -1.31; fewer than 50 cells in well enough cells in well; active. Knock-down of Or4k45 (GeneID 258398) came out at: Tnf reporter robust z-score -0.64; fewer than 50 cells in well enough cells in well; inactive.

After knock-down of Tubb4b (GeneID 227613), the record shows Tnf reporter robust z-score 0.44; fewer than 50 cells in well enough cells in well; inactive. Knock-down of Klra12 (GeneID 16630) resulted in: Tnf reporter robust z-score -0.99; fewer than 50 cells in well enough cells in well; inactive. Against Cd3d (GeneID 12500), the entry reads Tnf reporter robust z-score 1.9; fewer than 50 cells in well enough cells in well; inactive. Depletion of Tbc1d7 (GeneID 67046) gave: fewer than 50 cells in well fewer than 50 cells per well; well left out of calls; inactive. Silencing of Serpinf2 (GeneID 18816) gave: Tnf reporter robust z-score -0.51; fewer than 50 cells in well enough cells in well; inactive. Oxsr1 (GeneID 108737) showed Tnf reporter robust z-score 1.17; fewer than 50 cells in well enough cells in well; inactive.

With knock-down of Or8b50 (GeneID 258782) the results were fewer than 50 cells in well fewer than 50 cells per well; well left out of calls; inactive. Against Arhgef38 (GeneID 77669), the values are Tnf reporter robust z-score 0.11; fewer than 50 cells in well enough cells in well; inactive. Against 1700018F24Rik (GeneID 69396) the deposit lists fewer than 50 cells in well fewer than 50 cells per well; well left out of calls; inactive. After knock-down of Impact (GeneID 16210), the record shows Tnf reporter robust z-score -0.67; fewer than 50 cells in well enough cells in well; inactive. With knock-down of Rad1 (GeneID 19355), the screen gave Tnf reporter robust z-score -0.2; fewer than 50 cells in well enough cells in well; inactive. For Rab4b (GeneID 19342) the deposit lists Tnf reporter robust z-score 0.04; fewer than 50 cells in well enough cells in well; inactive.

Ly6d (GeneID 17068) scored Tnf reporter robust z-score 1.98; fewer than 50 cells in well enough cells in well; inactive. Knock-down of Cers1 (GeneID 93898) gave: Tnf reporter robust z-score -0.7; fewer than 50 cells in well enough cells in well; inactive. With knock-down of Islr (GeneID 26968), the record shows Tnf reporter robust z-score 1.59; fewer than 50 cells in well enough cells in well; inactive.
